# Laboratory results taken from PMC6328551.
# No constants are given. Whether binding was seen depends on the method and setting. Binding seen in cells or lysates may run through a third protein. These calls come from enrichment with a bait or labelling near it, and not all partners need be listed.
# B1: MIEF2, endogenous (protein, UniProt Q96C03 1-454)
# chain: MAEFSQKRGKRRSDEGLGSMVDFLLANARLVLGVGGAAVLGIATLAVKRFIDRATSPRDEDDTKADSWKELSLLKATPHLQPRPPPAALSQPVLPLAPSSSAPEGPAETDPEVTPQLSSPAPLCLTLQERLLAFERDRVTIPAAQVALAKQLAGDIALELQAYFRSKFPELPFGAFVPGGPLYDGLQAGAADHVRLLVPLVLEPGLWSLVPGVDTVARDPRCWAVRRTQLEFCPRGSSPWDRFLVGGYLSSRVLLELLRKALAASVNWPAIGSLLGCLIRPSMASEELLLEVQHERLELTVAVLVAVPGVDADDRLLLAWPLEGLAGNLWLQDLYPVEAARLRALDDHDAGTRRRLLLLLCAVCRGCSALGQLGRGHLTQVVLRLGEDNVDWTEEALGERFLQALELLIGSLEQASLPCHFNPSVNLFSSLREEEIDDIGYALYSGLQEPEGLL
# B2: MFF, endogenous (protein, UniProt Q9GZY8 1-342)
# chain: MSKGTSSDTSLGRVSRAAFPSPTAAEMAEISRIQYEMEYTEGISQRMRVPEKLKVAPPNADLEQGFQEGVPNASVIMQVPERIVVAGNNEDVSFSRPADLDLIQSTPFKPLALKTPPRVLTLSERPLDFLDLERPPTTPQNEEIRAVGRLKRERSMSENAVRQNGQLVRNDSLWHRSDSAPRNKISRFQAPISAPEYTVTPSPQQARVCPPHMLPEDGANLSSARGILSLIQSSTRRAYQQILDVLDENRRPVLRGGSAAATSNPHHDNVRYGISNIDTTIEGTSDDLTVVDAASLRRQIIKLNRRLQLLEEENKERAKREMVMYSITVAFWLLNSWLWFRR
# B3: MTFR1, endogenous (protein, UniProt Q15390 49-333)
# chain: CPRVQFQINSHATEWSPSHPGEDAVASFADVGWVAKEEGECSARLRTEVRSRPPLQDDLLFFEKAPSRQISLPDLSQEEPQLKTPALANEEALQKICALENELAALRAQIAKIVTQQEQQNLTAGDLDSTTFGTIPPHPPPPPPPLPPPALGLHQSTSAVDLIKERREKRANAGKTLVKNNPKKPEMPNMLEILKEMNSVKLRSVKRSEQDVKPKPVDATDPAALIAEALKKKFAYRYRSDSQDEVEKGIPKSESEATSERVLFGPHMLKPTGKMKALIENVSDS
# Target: BioID2-tagged ARMC10 (human)
# Test: proximity labelling; BioID: HEK293T cells stably expressing BioID2-tagged ARMC10, 50 μM biotin for 16 h, streptavidin agarose beads overnight, mass spectrometry; six repeats, eight controls
row,binding,Binder
1,binds,B1
2,binds,B2
3,binds,B3
